Measurements reported in PubChem BioAssay AID1259405 (NCATS, 2018).
Assay: 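Knock-downs that lift recombinant protein yield in hamster ovary cells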 (primary screen). Cells: Chinese hamster CHO-K1 ovary cells with stable secreted eGFP expression. Reagents: single siRNA against mouse genes, 0.8 pmol siRNA per well (2 µl of 400 nM stock). Time to read-out: 3 days. Read-out: 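Per-well intracellular GFP measured by laser scanning cytometry, plus viability from ATP luminescence, each relative to plate median of non-targeting control wells, in %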. Direction: GFP, % of control: higher = more GFP per well, higher productivity; viability (ATP), % of control: higher = more viable cells (more ATP). Call rule: 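a knock-down is called active if GFP reaches 120% or more of non-targeting control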.
The whole screen tested about 50,000 reagents; shown is a part drawn at random. Over the whole deposit, about 4,000 (8%) are marked active. 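Mouse siRNA library applied to hamster cells; one well for each siRNA.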 The numbers tell different reagents against one gene apart. No sequences are given here.

Slc6a14 #1
- GFP, % of control: 85.2
- viability (ATP), % of control: 74.3
- Outcome: inactive

Slc6a14 #2
- GFP, % of control: 66.7
- viability (ATP), % of control: 76.3
- Outcome: inactive

Slc6a14 #3
- GFP, % of control: 60.8
- viability (ATP), % of control: 67.8
- Outcome: inactive

Or7e168 #1
- GFP, % of control: 163
- viability (ATP), % of control: 74.1
- Outcome: active

Or7e168 #2
- GFP, % of control: 117
- viability (ATP), % of control: 53.8
- Outcome: inactive

Or7e168 #3
- GFP, % of control: 109
- viability (ATP), % of control: 67.1
- Outcome: inactive

A730020M07Rik #1
- GFP, % of control: 230
- viability (ATP), % of control: 69.6
- Outcome: active

A730020M07Rik #2
- GFP, % of control: 67
- viability (ATP), % of control: 56.2
- Outcome: inactive

A730020M07Rik #3
- GFP, % of control: 74.2
- viability (ATP), % of control: 89.5
- Outcome: inactive

Gper1 #1
- GFP, % of control: 95.4
- viability (ATP), % of control: 90.3
- Outcome: inactive

Gper1 #2
- GFP, % of control: 108
- viability (ATP), % of control: 84.9
- Outcome: inactive

Gper1 #3
- GFP, % of control: 33.4
- viability (ATP), % of control: 31.5
- Outcome: inactive

Colec10 #1
- GFP, % of control: 121
- viability (ATP), % of control: 70.3
- Outcome: active

Colec10 #2
- GFP, % of control: 53.7
- viability (ATP), % of control: 62.6
- Outcome: inactive

Colec10 #3
- GFP, % of control: 60.2
- viability (ATP), % of control: 66.5
- Outcome: inactive

Nkiras2 #1
- GFP, % of control: 103
- viability (ATP), % of control: 93.7
- Outcome: inactive

Nkiras2 #2
- GFP, % of control: 84.6
- viability (ATP), % of control: 95.7
- Outcome: inactive

Nkiras2 #3
- GFP, % of control: 71.9
- viability (ATP), % of control: 72.7
- Outcome: inactive

Pramel32 #1
- GFP, % of control: 81.9
- viability (ATP), % of control: 91.3
- Outcome: inactive

Pramel32 #2
- GFP, % of control: 86.6
- viability (ATP), % of control: 80.3
- Outcome: inactive

Pramel32 #3
- GFP, % of control: 134
- viability (ATP), % of control: 126
- Outcome: active

Erh #1
- GFP, % of control: 65.3
- viability (ATP), % of control: 89.3
- Outcome: inactive

Erh #2
- GFP, % of control: 152
- viability (ATP), % of control: 58
- Outcome: active

Erh #3
- GFP, % of control: 83.6
- viability (ATP), % of control: 83.4
- Outcome: inactive

Gng5 #1
- GFP, % of control: 95.5
- viability (ATP), % of control: 107
- Outcome: inactive

Gng5 #2
- GFP, % of control: 66.9
- viability (ATP), % of control: 54.2
- Outcome: inactive

Gng5 #3
- GFP, % of control: 59.8
- viability (ATP), % of control: 37.4
- Outcome: inactive

Bax #1
- GFP, % of control: 82.2
- viability (ATP), % of control: 64.5
- Outcome: inactive

Bax #2
- GFP, % of control: 72.1
- viability (ATP), % of control: 67.6
- Outcome: inactive

Bax #3
- GFP, % of control: 82.7
- viability (ATP), % of control: 77.1
- Outcome: inactive

Snapc3 #1
- GFP, % of control: 69.1
- viability (ATP), % of control: 71.1
- Outcome: inactive

Snapc3 #2
- GFP, % of control: 79
- viability (ATP), % of control: 67.8
- Outcome: inactive

Snapc3 #3
- GFP, % of control: 88.3
- viability (ATP), % of control: 79.4
- Outcome: inactive

4930465K10Rik #1
- GFP, % of control: 82.7
- viability (ATP), % of control: 58.4
- Outcome: inactive

4930465K10Rik #2
- GFP, % of control: 134
- viability (ATP), % of control: 98.4
- Outcome: active

4930465K10Rik #3
- GFP, % of control: 61.6
- viability (ATP), % of control: 71.9
- Outcome: inactive

Gabrb3 #1
- GFP, % of control: 89.5
- viability (ATP), % of control: 86.4
- Outcome: inactive

Gabrb3 #2
- GFP, % of control: 73.3
- viability (ATP), % of control: 77.7
- Outcome: inactive

Gabrb3 #3
- GFP, % of control: 85
- viability (ATP), % of control: 76
- Outcome: inactive

Ncaph #1
- GFP, % of control: 105
- viability (ATP), % of control: 130
- Outcome: inactive

Ncaph #2
- GFP, % of control: 79.6
- viability (ATP), % of control: 75
- Outcome: inactive

Ncaph #3
- GFP, % of control: 123
- viability (ATP), % of control: 141
- Outcome: active

Nqo2 #1
- GFP, % of control: 77.1
- viability (ATP), % of control: 68.4
- Outcome: inactive

Nqo2 #2
- GFP, % of control: 62.4
- viability (ATP), % of control: 63.1
- Outcome: inactive

Fbxl3 #1
- GFP, % of control: 117
- viability (ATP), % of control: 99
- Outcome: inactive

Fbxl3 #2
- GFP, % of control: 84.3
- viability (ATP), % of control: 73.8
- Outcome: inactive

Fbxl3 #3
- GFP, % of control: 136
- viability (ATP), % of control: 73.5
- Outcome: active

Tm9sf3 #1
- GFP, % of control: 82.7
- viability (ATP), % of control: 74.4
- Outcome: inactive

Tm9sf3 #2
- GFP, % of control: 75.8
- viability (ATP), % of control: 73.4
- Outcome: inactive

Tm9sf3 #3
- GFP, % of control: 107
- viability (ATP), % of control: 77.7
- Outcome: inactive

Lipg #1
- GFP, % of control: 115
- viability (ATP), % of control: 126
- Outcome: inactive

Lipg #2
- GFP, % of control: 134
- viability (ATP), % of control: 125
- Outcome: active

Lipg #3
- GFP, % of control: 73.5
- viability (ATP), % of control: 100
- Outcome: inactive
